Test results: paper PMC5790279, “Identification of novel leishmanicidal molecules by virtual and biochemical screenings targeting Leishmania eukaryotic translation initiation factor 4A” (PLoS Neglected Tropical Diseases, 2018)

Columns and labels:
[1] = system: L. infantum promastigotes; test: MTT viability assay on promastigotes; assay type: cell-based, Leishmania infantum; conditions: CC50 THP-1 / IC50 promastigotes
[2] = system: L. infantum intramacrophage amastigotes; test: Macrophage infection assay, intramacrophage amastigotes; assay type: cell-based, Leishmania infantum; conditions: CC50 THP-1 / IC50 amastigotes
Experimental: [86] […] [87] […] [87]
After careful washing of PMA-treated THP-1 cells (50,000 cells/well) with warm serum-free RPMI-1640 (∼ 37°C) media, 50 μl of the diluted L. infantum promastigote culture were added at the optimized MOI (10:1). Control wells of THP-1 cells without the parasites, and THP-1 cells with the parasites, were set up in each 8-well Labtek slides. The slides were incubated at 37°C, 5% CO2 overnight. After incubation, infected wells were washed at least 3 times with serum-free RPMI-1640 media to ensure complete removal of non-engulfed promastigotes, and then they were incubated in presence of different concentrations of compounds for 24 h. Control groups were incubated in supplemented RPMI medium containing 1% DMSO. Cells were then fixed and stained with RAL 555 rapid stain kit (May-Grünwald Type) (Cell Path, Newtown, UK) following the manufacturer’s instructions. The number of infected cells per 100 macrophages and the total number of parasites per 100 cells observed were determined by light microscopy under immersion oil (1000X) by counting at least 100 cells per well. Three independent experiments were conducted for each compound concentration. These values allowed us to determine the mean values and standard deviations of the percentage of infected cells and the mean amastigote number per cell. To account for the overall parasite load, an Infection Index was calculated by multiplying these two values; then, to assess the infection inhibition by the compounds, the percentage of Inhibition Parasite Index (IPI) was determined as: IPI = 100 − ((Infection Index in treated cells/Infection Index in untreated cells) * 100).
The amastigote IC50 values were calculated for all tested compounds. Selectivity index was also determined for each compound as follows: SI = CC50/IC50. Data were analyzed with Kaleidagraph (Synergy). The statistical significance of differences was determined with the Student’s t-test (* p < 0.05; ** p < 0.01).

SMILES | Promastigotes SI [1] | Amastigotes SI [2]
CC(C)CCCC(C)C1CCC2C3CC(=O)C4CC(O)CCC4(C)C3CCC12C (stereo not drawn) [Compound 48, 6-ketocholestanol] | 2.1 | 19.3
CC(C)CCCC(C)C1CCC2C3CC(N)C4CC(O)CCC4(C)C3CCC12C (mixture of isomers) [Compound 208, 6-α/β-aminocholestanol] | 10.6 | 31.7
CC(C)CCCC(C)C1CCC2C3CC(N)C4CC(O)CCC4(C)C3CCC12C (stereo not drawn) [Compound 20, 6-α-aminocholestanol] | 9.7 | 37.5
